Results are given in words; binding and its absence hold for the method and conditions named. Binding seen in cells or lysates may run through a third protein. These calls come from enrichment with a bait or labelling near it, and not all partners need be listed. For some assays here: Sequences can lack the tags named with a protein.
Key:
[1] = target: T1, Chs2-9MYC (S. cerevisiae) (UniProt P14180); test: affinity purification with mass spectrometry; two steps: five-litre culture, extract 105 minutes after release from G1; Inn1-TAP on IgG beads, released with TEV protease, then immunoprecipitation of Chs2-9MYC; gel lanes cut into 10 bands, mass spectrometry; control strain expressing the TAP tag alone
T1 sequence: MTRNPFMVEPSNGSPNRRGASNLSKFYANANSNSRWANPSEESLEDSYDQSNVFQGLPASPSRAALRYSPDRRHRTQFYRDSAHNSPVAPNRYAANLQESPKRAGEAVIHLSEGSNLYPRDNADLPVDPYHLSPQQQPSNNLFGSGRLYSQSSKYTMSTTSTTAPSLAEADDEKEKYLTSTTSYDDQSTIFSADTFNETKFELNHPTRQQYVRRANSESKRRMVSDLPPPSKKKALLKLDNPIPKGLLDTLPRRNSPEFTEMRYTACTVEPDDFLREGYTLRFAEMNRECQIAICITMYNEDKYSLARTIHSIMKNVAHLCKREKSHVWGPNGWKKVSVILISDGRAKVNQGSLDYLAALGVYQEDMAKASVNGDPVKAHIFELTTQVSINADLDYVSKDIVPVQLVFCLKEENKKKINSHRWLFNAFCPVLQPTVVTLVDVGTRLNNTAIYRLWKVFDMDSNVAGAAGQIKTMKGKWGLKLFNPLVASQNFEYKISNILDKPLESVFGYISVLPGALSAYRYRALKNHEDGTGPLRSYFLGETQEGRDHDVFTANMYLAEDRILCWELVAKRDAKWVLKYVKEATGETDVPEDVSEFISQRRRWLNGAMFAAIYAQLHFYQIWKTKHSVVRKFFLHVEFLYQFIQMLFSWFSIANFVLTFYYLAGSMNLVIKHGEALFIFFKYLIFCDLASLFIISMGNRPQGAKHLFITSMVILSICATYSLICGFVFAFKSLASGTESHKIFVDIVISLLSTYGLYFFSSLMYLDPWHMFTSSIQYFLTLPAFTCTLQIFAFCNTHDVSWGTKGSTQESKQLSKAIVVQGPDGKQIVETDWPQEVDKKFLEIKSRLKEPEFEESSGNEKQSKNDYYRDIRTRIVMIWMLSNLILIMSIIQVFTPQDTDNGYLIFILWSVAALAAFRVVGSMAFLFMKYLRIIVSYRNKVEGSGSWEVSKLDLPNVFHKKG

Protein sequences, listed by entry. Tags and fused reporters are not part of them.
UniProt P08964: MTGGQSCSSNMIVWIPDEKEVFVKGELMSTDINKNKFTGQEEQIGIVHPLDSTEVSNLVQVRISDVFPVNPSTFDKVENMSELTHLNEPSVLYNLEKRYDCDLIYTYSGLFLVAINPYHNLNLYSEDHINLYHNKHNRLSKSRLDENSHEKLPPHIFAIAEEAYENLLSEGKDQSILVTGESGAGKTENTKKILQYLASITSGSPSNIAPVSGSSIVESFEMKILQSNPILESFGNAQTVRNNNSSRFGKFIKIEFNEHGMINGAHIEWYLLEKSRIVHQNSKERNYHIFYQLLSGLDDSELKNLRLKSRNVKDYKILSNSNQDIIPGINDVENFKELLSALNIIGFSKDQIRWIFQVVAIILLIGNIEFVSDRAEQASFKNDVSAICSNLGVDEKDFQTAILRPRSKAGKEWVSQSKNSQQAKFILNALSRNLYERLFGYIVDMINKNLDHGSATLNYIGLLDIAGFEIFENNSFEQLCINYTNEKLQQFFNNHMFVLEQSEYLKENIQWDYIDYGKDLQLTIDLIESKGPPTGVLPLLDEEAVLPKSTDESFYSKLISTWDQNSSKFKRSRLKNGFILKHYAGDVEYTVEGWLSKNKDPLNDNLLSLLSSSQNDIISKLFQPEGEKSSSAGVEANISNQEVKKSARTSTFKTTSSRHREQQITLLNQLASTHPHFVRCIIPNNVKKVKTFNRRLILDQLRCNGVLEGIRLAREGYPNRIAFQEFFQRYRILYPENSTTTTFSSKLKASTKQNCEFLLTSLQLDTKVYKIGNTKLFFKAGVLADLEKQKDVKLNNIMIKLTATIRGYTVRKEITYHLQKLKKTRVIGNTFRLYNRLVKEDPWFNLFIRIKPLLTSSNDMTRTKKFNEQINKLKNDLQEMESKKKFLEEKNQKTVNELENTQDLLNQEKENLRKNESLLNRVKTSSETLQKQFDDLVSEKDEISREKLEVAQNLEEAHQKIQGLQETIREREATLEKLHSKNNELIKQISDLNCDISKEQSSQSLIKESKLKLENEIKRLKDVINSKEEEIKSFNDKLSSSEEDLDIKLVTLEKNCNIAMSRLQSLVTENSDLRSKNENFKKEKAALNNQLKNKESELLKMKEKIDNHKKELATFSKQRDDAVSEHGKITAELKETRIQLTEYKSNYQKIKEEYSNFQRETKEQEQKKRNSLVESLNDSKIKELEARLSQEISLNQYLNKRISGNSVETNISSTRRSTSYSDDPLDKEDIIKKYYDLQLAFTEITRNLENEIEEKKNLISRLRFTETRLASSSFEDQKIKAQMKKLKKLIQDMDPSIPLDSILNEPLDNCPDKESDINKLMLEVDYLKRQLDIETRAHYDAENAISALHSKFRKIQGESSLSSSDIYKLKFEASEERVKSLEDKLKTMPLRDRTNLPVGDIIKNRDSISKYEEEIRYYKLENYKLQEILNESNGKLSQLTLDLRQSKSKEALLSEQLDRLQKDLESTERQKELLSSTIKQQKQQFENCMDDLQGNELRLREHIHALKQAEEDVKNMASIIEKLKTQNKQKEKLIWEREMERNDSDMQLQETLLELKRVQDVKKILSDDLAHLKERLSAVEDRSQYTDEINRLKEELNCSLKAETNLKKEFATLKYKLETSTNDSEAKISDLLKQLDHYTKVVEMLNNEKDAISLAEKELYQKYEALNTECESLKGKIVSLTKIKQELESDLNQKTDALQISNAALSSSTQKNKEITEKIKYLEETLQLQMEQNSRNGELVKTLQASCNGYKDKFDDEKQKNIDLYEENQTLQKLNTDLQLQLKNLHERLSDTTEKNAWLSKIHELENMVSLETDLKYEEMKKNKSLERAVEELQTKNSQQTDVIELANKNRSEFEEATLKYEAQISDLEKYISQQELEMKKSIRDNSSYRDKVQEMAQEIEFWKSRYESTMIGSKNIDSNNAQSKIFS

[2] = target: T2, Inn1-TAP (S. cerevisiae) (UniProt P53901); test: as above
T2 sequence: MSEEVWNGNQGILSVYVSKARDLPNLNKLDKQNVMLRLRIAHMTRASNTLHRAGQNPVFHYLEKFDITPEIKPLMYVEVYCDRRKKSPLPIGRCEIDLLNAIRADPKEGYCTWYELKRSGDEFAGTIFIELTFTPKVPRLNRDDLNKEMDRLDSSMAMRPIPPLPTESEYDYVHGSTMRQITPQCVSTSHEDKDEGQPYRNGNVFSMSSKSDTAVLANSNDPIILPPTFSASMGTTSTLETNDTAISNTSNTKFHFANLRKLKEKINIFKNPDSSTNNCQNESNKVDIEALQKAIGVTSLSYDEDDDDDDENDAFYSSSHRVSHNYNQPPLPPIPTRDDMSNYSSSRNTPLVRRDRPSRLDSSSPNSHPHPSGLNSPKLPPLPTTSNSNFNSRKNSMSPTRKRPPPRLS

Myo1 (endogenous, in yeast extract) (from UniProt P08964 1-1928)
binding [1]: binds
binding [2]: binds

B1: Iqg1 (endogenous, in yeast extract) (protein, UniProt Q12280 1-1495)
chain: MTAYSGSPSKPGNNNSYLNRYVENLGTNVTPPLRPQSSSKINSSLNIASPSHLKTKTSASNSSATILSKKVESSVSKLKPSLPNKLVGKYTVDLSNYSKIELRYYEFLCRVSEVKIWIEAVIEEALPSEIELCVGDSLRNGVFLAKLTQRINPDLTTVIFPAGDKLQFKHTQNINAFFGLVEHVGVPDSFRFELQDLYNKKNIPQVFETLHILISMINKKWPGKTPALTNVSGQISFTKEEIAACKKAWPRIRDFKSLGTNINTAPASPEEPKEKRSGLIKDFNKFERPNIPVEEILITPRKNITDANCSDFSNTPSPYNEAPKMSNLDVVVEKRKFTPIEPSLLGPTPSLEYSPIKNKSLSYYSPTISKYLTYDTEFYTRRSRAREEDLNYYQTFKYSPSHYSPMRRERMTEEQFLEKVVQLQNICRGVNTRFNLYIQKRLLNLFEQDILRFQACLRGNKFRVLSSMYLPIRRAKIDVPHVEAIQSRIKGSRIRYKYDKLKFTLSRFSCTVELLQAYCRSKLLKTTVNTKLNDIEISHYPLTKLQSYMRASYVRKKVMSLNTKLNDERESIMKFSAIIRGNVVRCSEDAILSAVHDVHKENISKLQSLIRGIFTRSCLASIIYSLGKENCNIIQLSACIRGNAVRHKVQSLFAPENNLSETVHDLQGLVRGILVRYTLDLVDDIVEYNNLALFQAFSRGALVRESLDQKSSFYKRNVRSVIMIQSWIRKSLQRSAYLELLDCPNPSLWAVKKFVHLLNGTATIEEVQNQLESCQASLDSENMKKERLLKSIRQQLNINGVLDKFGLLKDKDHELGISDSTIPKSKYQKYEKLFYMLQVDPSYWKLLYLKEPEFVAKNVYMTFGTVNQRMNDRERSYFTRFVCEMLQNAINEAPSIESFLDNRSQFWQTILQDFLRRESPEFFSIIVPVLDYLSDPVVDFESDPYKIYQEIHGFSSPQHCSPVDDASTKNKFIDNLRCLWHAIEMVAEIYTRKVHTIPVEIRYLCTKIFCYAADKNIEEIDSLRAISSILVNVFVSEYLVNREYYGYKDSNVQKNNQKIDILMKSLATVFEIKNFDGFLDPLNQYANEIKPHIKDVLYNVLVDPEYEQEGDRLIYLDMVSPSPKLELLTEKVLEISGKFEEYLNEFPEADILHDILEKNLDNSSFPRSGRVTLELDASAYRFLVSDDKMRKIYDQVKRAFVYMMQIEDVDTNLYDLSISTILPQDEPNFANFLEQNPKIRDDPMIQKLKPLKYFTLKNVTLKKIHELESTGTFCSSDNKLQNFLNDIANTIKNPNYAIDYVTQEIYITKETLTKISEMNHSLDIELSRLKKHVDHTIKDFQKAKDFSPVHKSKFGNFKNAVKKVQGRERSELQGMKFKWNTKQLYERGVLKTIRGEKLAELTVKVFGSSGPKFPDIIFKISTSDGSRFGIQMIDKRKGPDKRYSDDVDSFSFKDLIKTQVEPKIETWKLFHSNVVVNNSQLLHLIVSFFYKRNAL
binding [1]: binds
binding [2]: binds

B2: Hof1 (endogenous, in yeast extract) (protein, UniProt Q05080 1-669)
chain: MSYSYEACFWDPNDNGVNILLGHISQGIRSCDSMILFFKQRSELEKDYARRLGAITGKLDKDIGTNMDYGKLNETFNVVLSVEKARAQSHSKQSEILFRQIYTDTKAFAANLQARYTTLSGKIERLRMDKFNKKKGCEVLQKKLQDAQIRFRDLQLNENNMIGAKRVEHNKRELLKWESNSQEYKVQLDVLKQEYKASQKFWIHEWAQLSCELQEMENARISFLQSKLQQFATSSMETYILEQTKMDMLTNHLNSFTAADEISTFSKENGTGRLKHKTSKGDMNSSANWAQMSSISTTSKKTESYMDNIRKLSSQLKETENKRKLASIDKYEKPLPSPEVTMATQFRNSTPVIRNETKVVANPTLSLRSSPVQLQSNVDDSVLRQKPDKPRPIVGEEQLKPDEDSKNPDEKGLMVHKRNQSLSSPSESSSSNPTDFSHIKKRQSMESMTTSVSSMANSIDDSQRFAKSWNSSNRKRKSMSHLQVPSSASSRSDDGGRTPNSAHNLNEDDYNTRRDTSTSTILFKPPVAVRGTSRGHTHRQSMIMQDSSNPIEDALYEMERIQSSSKPGTKTGNIMDERGVVRDRGITVTLPIVTSEGFPVIEYAKAMYPLIGNEAPGLANFHKGDYLLITEIVNKDWYKGEVYDNDRIDRNHRIGLIPYNFIQLLHQGL
binding [1]: binds
binding [2]: binds

B3: Cyk3 (endogenous, in yeast extract) (protein, UniProt Q07533 1-885)
chain: MATNLTSLKPPFKVKARYGWSGQTKGDLGFLEGDIMEVTRIAGSWFYGKLLRNKKCSGYFPHNFVILLEERLNSSTENGRQPSKIVESFEKSNKVVIPPVPSRYSDERPRPKKKLSSSMPNSPKKPVDSLTKARKAKSKEMVNEKNIYNTQSSRHHNNSAPNLPLASHSKPQVRNFEESMNNPLPPLPPLPDLDNMRKTDKRAPKKSYSANDLHMARSSREYNYYKDNQKFYDGFIPEKRYSLEEDSISSGLFSNSQYLNDSACSSENSFALMSDFSATSAGSFARHKYAQSFSDSLQRSQNANGCSTKINDSQEFGDSNASSRNGKMGDILRKIIIPKRNTNIYSSSVSSPKSPKAYPKLPDIQNLNLSATPDEARDWIAVKCHLNRARTLTKYDKHPRYMRALEENRDLILHPQDSIYNGLNTNEVKGNTKPGLVDVELAELNIEYIDKMTWKRCIRDGTMTLDSWAQTTFSARYSTVLEKLRGIYIFCTEMFALTDDNGTSDFSAEPQNLEKILYRKHCTPYELTWLFKKLANSLGITCEIVIGFLKTPSAINWEFKYNHCWLRILVNKEWRFIDVILGNVTNPIHEFVNNRKIKKAENSYFLMAPLEMIYTHIPPREFEQHIVPSIDQLSALYLPLVFPSFFKNELKLYKFSTALSFLEDSEIYECSLEIPNDVEVFASVVIPTDNEEASSAYRNMELALTQIKKQKAESGRRIALIKAVLPPNVNKGSLYIHSGVRGTQTSIANIHPLSMMVPLTHKGSNMKYEFVIKIPSESIQKIELYIVEPQSRYLFVGNEYSFEVIQSPSDGIVYSSDEGPNQNRKQPMAIKSPSGRVHELVKSDPHFPYGTWKGSIKIKEPGVWSALVIADSGIGWSVFAEWLCV
binding [1]: binds
binding [2]: binds

From publication PMC4758748
